Experimental data from publication PMC11736430, “Embedding a ribonuclease in the spore crust couples gene expression to spore development in Bacillus subtilis” (Nucleic Acids Research, 2025).
These are yes or no findings as the source states them, for the method shown. For part of these data: Binding seen in cells or lysates may run through a third protein. Some results given as binding are weak or reduced against the parent protein; the word gives no strength. Where a sequence is shown, tags or fusion partners need not be part of it.

T1: KapD fused to the Gal4 DNA binding domain (pGBDU bait) (B. subtilis) (UniProt O05231)
T1 sequence: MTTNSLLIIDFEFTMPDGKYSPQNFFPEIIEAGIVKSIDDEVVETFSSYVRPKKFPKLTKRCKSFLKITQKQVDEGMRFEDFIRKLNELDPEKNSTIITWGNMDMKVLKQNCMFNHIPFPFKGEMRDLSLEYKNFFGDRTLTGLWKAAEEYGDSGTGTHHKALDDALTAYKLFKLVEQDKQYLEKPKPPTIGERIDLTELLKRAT

T2: KapD-6xHis (B. subtilis) (UniProt O05231)
T2 sequence: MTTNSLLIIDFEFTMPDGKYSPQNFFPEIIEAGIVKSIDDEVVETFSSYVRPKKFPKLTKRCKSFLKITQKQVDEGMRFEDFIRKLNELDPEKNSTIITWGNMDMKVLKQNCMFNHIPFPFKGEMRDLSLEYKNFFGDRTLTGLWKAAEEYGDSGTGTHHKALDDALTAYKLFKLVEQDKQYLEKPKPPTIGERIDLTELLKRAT


Legend:
[1] = target: T1, KapD fused to the Gal4 DNA binding domain (pGBDU bait) (B. subtilis); test: two-hybrid; genome-wide screen of a pGAD B. subtilis genomic library with pGBDU-KapD bait in yeast; selection on -LUH or -LUA; prey recloned for a specificity assay against empty vector and non-related proteins
KapD-6xHis (B. subtilis) [2] = target: T2, KapD-6xHis (B. subtilis); test: pull-down + SEC; pellets of E. coli expressing KapD-6xHis and CotY-3xFLAG mixed and lysed together; His-Trap column, then Superdex 200 10/300 GL in 20 mM Tris-HCl pH 8.8, 150 mM NaCl, 10% glycerol; fractions blotted with anti-KapD and anti-Flag
KapD-6xHis (B. subtilis) [3] = target: T2, KapD-6xHis (B. subtilis); test: pull-down + SEC; as the co-purification of KapD-6xHis and CotY-3xFLAG, but cells lysed in the presence of RNase A (10 ug/mL)

Row | binding [1] | binding (KapD-6xHis (B. subtilis) [2]) | binding (KapD-6xHis (B. subtilis) [3]) | Binder
1 | binds |  |  | CotY, full length, fused to the Gal4 activation domain (pGAD prey clone) (protein, UniProt Q08311 1-162) MSCGKTHGRHENCVCDAVEKILAEQEAVEEQCPTGCYTNLLNPTIAGKDTIPFLVFDKKGGLFSTFGNVGGFVDDMQCFESIFFRVEKLCDCCATLSILRPVDVKGDTLSVCHPCDPDFFGLEKTDFCIEVDLGCFCAIQCLSPELVDRTSPHKDKKHHHNG
2 |  | binds | binds | CotY-3xFLAG (protein, UniProt Q08311 1-162) MSCGKTHGRHENCVCDAVEKILAEQEAVEEQCPTGCYTNLLNPTIAGKDTIPFLVFDKKGGLFSTFGNVGGFVDDMQCFESIFFRVEKLCDCCATLSILRPVDVKGDTLSVCHPCDPDFFGLEKTDFCIEVDLGCFCAIQCLSPELVDRTSPHKDKKHHHNG
